Patent US20090264372A1, “UTILIZATION OF PEPTIDES AS ACTIVE INGREDIENTS FOR SLIMMING” (SOCIETE D'EXTRACTION DES PRINCIPES ACTIFS SA (VINCIENCE), priority 2006, published 2009)
Part of at least one peptide drawing is inferred or uncertain, most often the ends. Ends that are not written are not given here.

System: pre-adipocyte cell line 3T3-L1
Assay: Oil Red staining of lipid vacuoles in 3T3-L1 pre-adipocytes differentiated into mature adipocytes
Format: cell-based
Settings: mature adipocytes treated with solution containing the peptide, microscope observation

## GLYDNLE [Peptide of sequence ID N° (5), Gly Leu Tyr Asp Asn Leu Glu]
Versus nontreated controls (major accumulation)
  content of intra-adipocyte lipid vesicles: clearly diminished
Versus nontreated controls (voluminous spherical shape)
  morphology of mature adipocytes: less rounded
